Experimental findings from US9434687B2, “Detection of synthetic cannabinoids” (priority 2011, dated 2016) are described below.

Where two headings read alike, the source gives them in different places.

Common to all, as to type: binding, sheep
The subject of data set [1] is IgG fraction of antiserum raised to Immunogen II. The experiment in a line: Competitive ELISA, antibody RS1833B12 to Immunogen II, tracer ESC4555 (Example 36). Here is the method:
(§1) An aqueous solution of each immunogen was formulated with Freund's Complete Adjuvant (FCA) to form an emulsion consisting of 2 mg/ml*immunogen in 50% (v/v) FCA. Three sheep were immunised with this emulsion (1° immunisation), 0.25 ml being intramuscularly injected at each of four sites in the flank of each animal. Subsequent immunizations (boosts) contained 1 mg/ml*immunogen. All boosts were emulsified in 50% (v/v) Freund's Incomplete Adjuvant (FIA) and were administered in the same manner as the 1° immunisation, at monthly intervals. Blood sampling took place 7 to 14 days after each boost. *The general procedure for immunogen administration is outlined above, however, it was necessary to deviate from this protocol in some cases, due to reduced immunogen concentrations (Immunogens II, IV, VII and VIII) and/or amount available (Immunogen VIII). Any deviations from the protocol described are outlined in Table 5 below and highlighted in bold.
The appropriate antibody coating dilution was determined using standard ELISA checkerboard techniques. The plate was incubated overnight at 4° C., washed 4 times over 10 minutes with Tris buffered saline containing Tween 20 (TBST) and tapped dry. […] 75 μl of conjugate (appropriate hapten-HRP) diluted in Tris buffer (pH 7.2) containing EDTA, D-mannitol, sucrose, thimerosal and BSA, was added to each of the wells. The appropriate dilution of conjugate was also determined using standard ELISA checkerboard techniques. The plate was incubated at 25° C. for 1 hour. Excess unbound conjugate was removed by washing 6 times over a 10 minute period with TBST. 125 μl of tetramethylbenzidine (TMB) substrate solution was added to each well of the plate that was then incubated for 20 minutes in the dark at room temperature. The reaction was terminated by addition of 125 μl 0.2M H2SO4 to each well. The absorbance was then measured at 450 nm using a microtiter plate reader. The data are inputted to a computer program called ‘KC Junior’. It is a 4 parameter fit curve and allow the calculation of concentrations between the standard runs.
In a similar manner to that described above, the wells of a 96-well microtiter plate were coated with the IgG fraction of the antiserum raised to Immunogens I or II.
(§2) The data set out in Tables 7-10 are generated using antibodies raised against the indicated Immunogens in a competitive binding assay with the indicated tracers, using the indicated standards
(§3) Using the calibration curves generated and employing a single level of cross reactants, these were used to determine the cross-reactivity of each immunoassay with these substances. These are the standards used for the IC50 and cross-reactivity data generation: […]
(An ELISA detects its analyte on a solid surface through an enzyme-linked reagent.)

In data set [2] the test system is IgG fraction of antiserum raised to Immunogen I. Here is the method: as §1
(§4) The wells of an enhanced binding 96 well polystyrene microtiter plate were coated with IgG fraction of antiserum raised to Immunogen I or II, diluted in 10 mM Tris, pH8.5 (125 μl/well). The appropriate antibody coating dilution was determined using standard ELISA checkerboard techniques. The plate was incubated overnight at 4° C., washed 4 times over 10 minutes with Tris buffered saline containing Tween 20 (TBST) and tapped dry. Standard solutions (JWH-018 for Immunogens I and II) were applied at 0, 0.625, 1.25, 2.5, 5, 10, 20 and 40 ng/ml and 50 μl of each was added to the appropriate wells. 75 μl of conjugate (appropriate hapten-HRP) diluted in Tris buffer (pH 7.2) containing EDTA, D-mannitol, sucrose, thimerosal and BSA, was added to each of the wells. The appropriate dilution of conjugate was also determined using standard ELISA checkerboard techniques. The plate was incubated at 25° C. for 1 hour. Excess unbound conjugate was removed by washing 6 times over a 10 minute period with TBST. 125 μl of tetramethylbenzidine (TMB) substrate solution was added to each well of the plate that was then incubated for 20 minutes in the dark at room temperature. The reaction was terminated by addition of 125 μl 0.2M H2SO4 to each well. The absorbance was then measured at 450 nm using a microtiter plate reader. The data are inputted to a computer program called ‘KC Junior’. It is a 4 parameter fit curve and allow the calculation of concentrations between the standard runs. This program is used to calculate the IC50s by dividing the 0 ng/ml OD value by 2 and obtaining the concentration value from the curve for this OD.
In a similar manner to that described above, the wells of a 96-well microtiter plate were coated with the IgG fraction of the antiserum raised to Immunogens I or II. Standard solutions (JWH-018 for Immunogen I and II) were applied at 0, 0.625, 1.25, 2.5, 5, 10, 20 and 40 ng/ml and conjugate was employed as detection reagent.
as §2
(§5) In order to determine the specificity of the competitive ELISAs, standard solutions of a range of structurally similar synthetic cannabinoids and their metabolites were prepared in TBST.
as §3

The test system of data set [3] is IgG fraction of antiserum raised to Immunogen VIII. Here is the method:
as §1, §4
(§6) In a similar manner to that described above, the wells of a 96-well microtiter plate were coated with the IgG fraction of the antiserum raised to Immunogens IV, VII or VIII. Standard solutions (JWH-018 for Immunogens IV and VIII, JWH-015 for Immunogen VII) were prepared in TBST at 0, 1.25, 2.5, 5, 10, 20, 40 and 80 ng/ml and conjugate was employed as detection reagent.
as §2, §5, §3

In data set [4] the test system is IgG fraction of antiserum raised to Immunogen IV. Here is the method:
as §1, §4, §6, §2, §5, §3

Data set [5] has as its system IgG fraction of antiserum raised to Immunogen VII. Here is the method:
as §1, §4, §6, §2, §5, §3

`CCCCCn1cc(C(=O)c2cccc3ccccc23)c2ccccc21` [JWH-018]: the A450 was found to be 0.984 in data set [1] (JWH-018 0.625 ng/ml); 0.7685 in data set [1] (JWH-018 1.25 ng/ml); 0.499 in data set [1] (JWH-018 2.5 ng/ml); 0.3615 in data set [1] (JWH-018 5 ng/ml); 0.2525 in data set [1] (JWH-018 10 ng/ml); 0.1855 in data set [1] (JWH-018 20 ng/ml). The A450 in data set [1] (JWH-018 40 ng/ml) is 0.149; in data set [2] (JWH-018 0.625 ng/ml) it was 1.247; in data set [2] (JWH-018 1.25 ng/ml), 1.004; in data set [2] (JWH-018 2.5 ng/ml), 0.707; in data set [2] (JWH-018 5 ng/ml), 0.504; in data set [2] (JWH-018 10 ng/ml), 0.323. Further, the A450 was determined as 0.22 in data set [2] (JWH-018 20 ng/ml); 0.15 in data set [2] (JWH-018 40 ng/ml); 1.09 in data set [3] (JWH-018 1 ng/ml); 0.8765 in data set [3] (JWH-018 3 ng/ml); 0.708 in data set [3] (JWH-018 5 ng/ml); 0.5515 in data set [3] (JWH-018 10 ng/ml). The A450 in data set [3] (JWH-018 20 ng/ml) is recorded as 0.4015; in data set [3] (JWH-018 40 ng/ml), 0.3095; in data set [3] (JWH-018 80 ng/ml), 0.217; in data set [4] (JWH-018 1.25 ng/ml), 1.479; in data set [4] (JWH-018 2.5 ng/ml) it was 1.1625; in data set [4] (JWH-018 5 ng/ml), 0.7155. The A450 in data set [4] (JWH-018 10 ng/ml) is 0.442; in data set [4] (JWH-018 20 ng/ml) it was 0.2645; in data set [4] (JWH-018 40 ng/ml), 0.1735; in data set [4] (JWH-018 80 ng/ml) it was 0.116.

For `CCCn1c(C)c(C(=O)c2cccc3ccccc23)c2ccccc21` [JWH-015], the A450 in data set [5] (JWH-015 1.25 ng/ml) came out at 1.53; in data set [5] (JWH-015 2.5 ng/ml) it was 1.2605; in data set [5] (JWH-015 5 ng/ml), 1.0875; in data set [5] (JWH-015 10 ng/ml) it was 0.869; in data set [5] (JWH-015 20 ng/ml), 0.69; in data set [5] (JWH-015 40 ng/ml) it was 0.5345. In addition, the A450 in data set [5] (JWH-015 80 ng/ml) stood at 0.407.
